Test results published in paper PMC3525598.
These are yes or no findings as the source states them, for the method shown. Binding seen in cells or lysates may run through a third protein. Some results given as binding are weak or reduced against the parent protein; the word gives no strength. For some of these results: Tags and fused reporters may be left off the sequences shown.

Chains of the proteins cited; added tags and fusions are not shown.
UniProt Q969Q4: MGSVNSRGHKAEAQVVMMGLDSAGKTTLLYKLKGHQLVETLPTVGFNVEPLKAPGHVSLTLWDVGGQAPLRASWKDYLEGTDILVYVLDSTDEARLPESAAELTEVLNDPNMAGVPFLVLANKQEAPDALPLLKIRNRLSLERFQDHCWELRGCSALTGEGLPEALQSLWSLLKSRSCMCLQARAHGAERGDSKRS
UniProt P18669: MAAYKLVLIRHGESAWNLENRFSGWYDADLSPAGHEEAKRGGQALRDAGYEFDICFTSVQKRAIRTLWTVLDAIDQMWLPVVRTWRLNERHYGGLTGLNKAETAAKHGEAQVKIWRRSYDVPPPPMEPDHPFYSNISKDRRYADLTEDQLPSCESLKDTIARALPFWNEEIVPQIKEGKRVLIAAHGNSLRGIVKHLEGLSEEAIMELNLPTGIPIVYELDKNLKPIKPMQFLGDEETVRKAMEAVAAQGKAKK

T1: HA-tagged CRABP2 (human) (UniProt P29373)
T1 sequence: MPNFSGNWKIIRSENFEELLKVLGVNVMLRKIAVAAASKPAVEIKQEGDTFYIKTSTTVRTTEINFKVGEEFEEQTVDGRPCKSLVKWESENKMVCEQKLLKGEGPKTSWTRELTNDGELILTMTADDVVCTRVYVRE


Tests used:
[1] = target: ARL11-YFP2 (ras-related ADP-ribosylation factor-like 11 fused to yellow fluorescent protein fragment 2 at its C-terminus) (human) (UniProt Q969Q4); assay: split reporter; YFP protein complementation screen: HEK-293T cells co-transfected with the YFP1-tagged in-frame cDNA library (prey) and ARL11-YFP2 (bait); brightest about 1% of fluorescent cells sorted after 24 hours; plasmids from single colonies co-transfected again with ARL11-YFP2 to confirm fluorescence, then sequenced
HA-tagged ARL11 (human) = HA-tagged ARL11 (human) (UniProt Q969Q4); assay: co-IP; HEK-293T cells co-transfected; lysed by sonication in 137 mM NaCl, 10 mM phosphate, 2.7 mM KCl with protease inhibitors; anti-HA antibody agarose beads, 4°C for 5 hours, washed thrice; western blot for the partner
[2] = target: ARL11-YFP2 (ras-related ADP-ribosylation factor-like 11 fused to yellow fluorescent protein fragment 2 at its C-terminus) (human) (UniProt Q969Q4); assay: split reporter; YFP protein complementation with single constructs: HEK-293T cells on cover slips co-transfected with the YFP1-tagged protein and ARL11-YFP2; fixed after 24 hours, DAPI, confocal microscopy
HA-tagged CRABP2 (human) = target: T1, HA-tagged CRABP2 (human); assay: co-IP; HEK-293T cells co-transfected; lysed by sonication in 137 mM NaCl, 10 mM phosphate, 2.7 mM KCl with protease inhibitors; anti-HA antibody agarose beads, 4°C for 5 hours, washed thrice; western blot for the partner
HA-tagged PGAM1 (human) = HA-tagged PGAM1 (human) (UniProt P18669); assay: as above
[3] = target: ARL11-YFP2 (ras-related ADP-ribosylation factor-like 11 fused to yellow fluorescent protein fragment 2 at its C-terminus) (human) (UniProt Q969Q4); assay: split reporter; YFP protein complementation screen: HEK-293T cells co-transfected with the YFP1-tagged in-frame cDNA library (prey) and ARL11-YFP2 (bait); brightest about 1% of fluorescent cells sorted after 24 hours; plasmids from single colonies co-transfected again with ARL11-YFP2 to confirm fluorescence, then sequenced; remark: listed apart in the source

| binding (HA-tagged ARL11 (human)) | binding [2] | Molecule | also measured |
| --- | --- | --- | --- |
| binds | binds | YFP1-PGAM1 (phosphoglycerate mutase 1 with N-terminal yellow fluorescent protein fragment 1, construct without 5′-UTR) (from UniProt P18669 1-254) (enzyme) | binding [1]: binds |
| – | – | FLAG-tagged ARL11 (from UniProt Q969Q4 1-196) | binding (HA-tagged CRABP2 (human)): binds; binding (HA-tagged PGAM1 (human)): binds |
| binds | – | FLAG-tagged PGAM1 (from UniProt P18669 1-254) (enzyme) | – |
| binds | binds | YFP1-CRABP2 (cellular retinoic acid binding protein 2 with N-terminal yellow fluorescent protein fragment 1, construct without 5′-UTR) (protein, UniProt P29373 1-138) MPNFSGNWKIIRSENFEELLKVLGVNVMLRKIAVAAASKPAVEIKQEGDTFYIKTSTTVRTTEINFKVGEEFEEQTVDGRPCKSLVKWESENKMVCEQKLLKGEGPKTSWTRELTNDGELILTMTADDVVCTRVYVRE | binding [3]: binds |
| binds | – | FLAG-tagged CRABP2 (construct without its 5′-UTR) (protein, UniProt P29373 1-138) MPNFSGNWKIIRSENFEELLKVLGVNVMLRKIAVAAASKPAVEIKQEGDTFYIKTSTTVRTTEINFKVGEEFEEQTVDGRPCKSLVKWESENKMVCEQKLLKGEGPKTSWTRELTNDGELILTMTADDVVCTRVYVRE | – |
